Among the data in paper PMC7819943, “Rice protein-binding microarrays: a tool to detect cis-acting elements near promoter regions in rice” are binding signal values, retold here.

This is one part of the list.

The test addresses T1, OsSMF1 (Oryza sativa, UniProt Q6ZLB0 1-436).
T1 sequence: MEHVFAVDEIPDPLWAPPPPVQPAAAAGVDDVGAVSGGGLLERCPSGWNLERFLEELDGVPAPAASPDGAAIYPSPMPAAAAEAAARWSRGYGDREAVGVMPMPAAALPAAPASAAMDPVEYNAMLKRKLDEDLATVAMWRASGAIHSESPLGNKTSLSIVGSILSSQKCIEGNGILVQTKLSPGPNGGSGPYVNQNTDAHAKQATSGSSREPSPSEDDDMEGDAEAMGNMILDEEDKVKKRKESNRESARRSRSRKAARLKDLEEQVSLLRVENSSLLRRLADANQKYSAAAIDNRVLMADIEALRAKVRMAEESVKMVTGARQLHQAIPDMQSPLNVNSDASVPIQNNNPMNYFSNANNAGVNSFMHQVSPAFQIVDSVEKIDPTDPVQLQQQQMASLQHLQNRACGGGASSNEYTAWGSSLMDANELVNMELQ
In words: protein-binding microarray (RPBM); PBS, 2% BSA, 51.3 ng/ul salmon testes DNA, 50 uM zinc acetate, 200 nM TF, 25 C, 1 h; high values mean tight binding. Particulars: protein: recombinant; tags: N-terminal polyhistidine and DsRed monomer fusion (pET32a); chain copies: 2; label: CyDye5-dUTP incorporated in the synthesized complementary strand; 3' TTTTT single-stranded linker to array surface; dsDNA, one strand shown. The method in brief: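 An Axon 4000B scanner gave the binding signal as per-feature fluorescence intensity in arbitrary units. This followed washing of a custom Agilent array that had been incubated for 1 h at 25 °C with 200 nM protein in PBS, 2% BSA, salmon testes DNA and 50 µM zinc acetate. The proteins were transcription factors fused at the N-terminus to polyhistidine and DsRed, expressed in E. coli BL21-CodonPlus and purified on Ni–NTA.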
As for “ATACGCCTTTTAAAATATCGTCATTGAGCTTAACCTTTCTCGGAGTCACCTAGTGCAG”, the binding signal is 3620 fluorescence intensity (a.u.). With “AAGGAAGGAAACTAGGAAAGGAGGAGTCATCACTGGTAGGCGGAGTCACCTAGTGCAG” the figure was 6410 fluorescence intensity (a.u.); with “GAAAGAGGACTCCGAGAGCTTTCCATCAAGTACTCACGGGCGGAGTCACCTAGTGCAG”, 16100 fluorescence intensity (a.u.); with “CGTCCCCGCCGACGGCGTGTTCCTGGACGGCCACGCGCTGCGGAGTCACCTAGTGCAG”, 3630 fluorescence intensity (a.u.). For the sequence “GATCCAGTAAGTTAGTTACTCCTAGTACGCGTAGAATGGACGGAGTCACCTAGTGCAG”, the binding signal is 3320 fluorescence intensity (a.u.). With “CGGTGGAGTCATCATCAACCTCTATGCAAACGCTGCTGCCCGGAGTCACCTAGTGCAG” the figure was 4230 fluorescence intensity (a.u.); with “AGCTGTTCCCACTAAAGTATCCACCGAACGACGAGGTCCTCGGAGTCACCTAGTGCAG”, 3240 fluorescence intensity (a.u.); with “TGCAGGTCTTGGAGGGATTGGTGAGGCAGCTGACACGCGGCGGAGTCACCTAGTGCAG”, 4080 fluorescence intensity (a.u.). In the case of “ACTAACTGTGATGGTGAGAACTAATACTTCCTCCGTTTTACGGAGTCACCTAGTGCAG”, the binding signal is 3260 fluorescence intensity (a.u.). The same measure for “AAGAGTCCAGAAGAATCCACCTCACCACCACGCGCACCGGCGGAGTCACCTAGTGCAG”: 8080 fluorescence intensity (a.u.). The same measure for “GGCGCTGTCATCCAGCCGCCCTCCCGCCGCGTAGGCGTCGCGGAGTCACCTAGTGCAG”: 3940 fluorescence intensity (a.u.). With “CGAGCCAATCAAGTTGTTTTAAGGAAAGCAAACGTACGCACGGAGTCACCTAGTGCAG” the figure was 3270 fluorescence intensity (a.u.); with “AATTACTCCTCGTCATCTCGTCTCGTCTCCGCCACCGTGCCGGAGTCACCTAGTGCAG”, 4480 fluorescence intensity (a.u.); with “TCTTCAGGATCTCCGGCGTGACGACGAACATCTCCTCCCCCGGAGTCACCTAGTGCAG”, 5190 fluorescence intensity (a.u.). As to “TGTGGGTCAGGTTGTGATATCTGTGCCCAGAAACAGTTGTCGGAGTCACCTAGTGCAG”, the binding signal is 10700 fluorescence intensity (a.u.). Consider “AGAAGCACTTACTGGGCCATGGCCCACAACATCCGGTCCACGGAGTCACCTAGTGCAG”, for which the binding signal was 3220 fluorescence intensity (a.u.). Regarding “CATGTGGAAAAGGGATTATGGTACAACCAAACTGTGATGACGGAGTCACCTAGTGCAG”, the binding signal is 3290 fluorescence intensity (a.u.). The same measure for “CGTTCTTATCCACTCATTCCACTGTAATGGGATTGTTTGTCGGAGTCACCTAGTGCAG”: 3970 fluorescence intensity (a.u.); for “GCCGCCTGCGCGCCGCGGACGTGGCACCGCCGCGCCACCGCGGAGTCACCTAGTGCAG”: 6800 fluorescence intensity (a.u.); for “GTGTGCTCTTGCATACATACTTGGGCTTATCTAGCTGCGTCGGAGTCACCTAGTGCAG”: 5510 fluorescence intensity (a.u.). The same measure for “TTCCTCCCCACGCCGCGCTCTCCTCCCCTCTTAAACCACTCGGAGTCACCTAGTGCAG”: 3430 fluorescence intensity (a.u.).

With “TCGTCTGGAGAGATGCCTTCATATATTATGATGTCATTGGCGGAGTCACCTAGTGCAG”, the binding signal was 7520 fluorescence intensity (a.u.). In the case of “TTAATACGTATGAATATATAAAGTTTATATATGCATGTACCGGAGTCACCTAGTGCAG”, the binding signal was 63000 fluorescence intensity (a.u.). With “TATCAGGACGGGAGGACAATTGACACGTACATCCTCCTACCGGAGTCACCTAGTGCAG” the figure was 6720 fluorescence intensity (a.u.); with “CGCGCTGATTGGGCGGCGGATGAGGCGCGTGTGAGCCACGCGGAGTCACCTAGTGCAG”, 6670 fluorescence intensity (a.u.). The same measure for “GCTGCCGGCGCTGGAGGCCGCCGTGCGCCCGATCCGTGCGCGGAGTCACCTAGTGCAG”: 3290 fluorescence intensity (a.u.); for “TCTCCCCTCTCCACGCCACAGATCTCTCCCCTCTCCATCTCGGAGTCACCTAGTGCAG”: 3670 fluorescence intensity (a.u.); for “AGTTGCAAACAGACCGAGGTGGCCACATCGGCTCTTTACTCGGAGTCACCTAGTGCAG”: 6160 fluorescence intensity (a.u.). The same measure for “CCGGCCCATTTTGCTTCAAATGGAGGCCTATCTGTACTGCCGGAGTCACCTAGTGCAG”: 30700 fluorescence intensity (a.u.). “TCCAAATTCAGCCAAACTTCTCTCTCTTCCTCCTCTTACACGGAGTCACCTAGTGCAG”: the binding signal is 33800 fluorescence intensity (a.u.). With “GTTCCGCCTCGCCGTGGGGCCGCGCGGTTTCGTCACGTGGCGGAGTCACCTAGTGCAG” the figure was 4460 fluorescence intensity (a.u.); with “GATTGCAGCCGCCGCCTGCGTCGGTCCAGTCACCATTGGCCGGAGTCACCTAGTGCAG”, 6870 fluorescence intensity (a.u.). “ATATTAAATTCAACCCTACTTTTAGTATCTATTATACATACGGAGTCACCTAGTGCAG”: the binding signal was 3480 fluorescence intensity (a.u.). With “GACGACGCCCCTGTCCGCCGACTACGTCACGAGAGAGAAGCGGAGTCACCTAGTGCAG”, the binding signal is 3170 fluorescence intensity (a.u.). The same measure for “CCCATCCACGCGTAGCTGTCGTGCCACGTCTCCCCGTGGACGGAGTCACCTAGTGCAG”: 11300 fluorescence intensity (a.u.); for “AATACACAAATCAATCTGTGGCTTACTCACTAATTTTATCCGGAGTCACCTAGTGCAG”: 3210 fluorescence intensity (a.u.); for “AGCATCACTGTCATCCGTTTGCAGTGCATCCTCATCCTGACGGAGTCACCTAGTGCAG”: 3460 fluorescence intensity (a.u.). With “GCTCGCCTTTTATCGCAGCCAAAGCCATGAAATTTCCCCACGGAGTCACCTAGTGCAG” the figure was 27500 fluorescence intensity (a.u.); with “AGTCGTTTTCTGCGTAAGCATTTTCCTCGCTGTACTCTTTCGGAGTCACCTAGTGCAG”, 3160 fluorescence intensity (a.u.). The same measure for “GCCGATGAGGTGGACAACGATAACACCCAACACTTACACTCGGAGTCACCTAGTGCAG”: 4170 fluorescence intensity (a.u.). With “TCGCTTTGTATTCAGCAACCAAGACCTCATTATCACCGAGCGGAGTCACCTAGTGCAG”, the binding signal is 3630 fluorescence intensity (a.u.). With “AAGAGAAATTCTAGTTGTGCACATATTTGAGCTTGGACACCGGAGTCACCTAGTGCAG” the figure was 25500 fluorescence intensity (a.u.).
